Results are given in words; binding and its absence hold for the method and conditions named. In cells and extracts the contact can be indirect. These calls come from enrichment with a bait or labelling near it, and not all partners need be listed.
target: mCherry-tagged Semi1 (selected haploid micronucleus 1) (T. thermophila) (UniProt Q233X5); experiment: affinity purification with mass spectrometry; interaction partners of mCherry-Semi1 co-immunoprecipitated from T. thermophila cells and identified by MS; cells expressing the free mCherry tag as control; SAINTexpress analysis (p < 0.05)

The chains behind the UniProt entries cited, without tags or fusion partners. Where a name states a change or a piece, a line headed by the entry shows the natural chain unless it says otherwise.
UniProt Q233X5: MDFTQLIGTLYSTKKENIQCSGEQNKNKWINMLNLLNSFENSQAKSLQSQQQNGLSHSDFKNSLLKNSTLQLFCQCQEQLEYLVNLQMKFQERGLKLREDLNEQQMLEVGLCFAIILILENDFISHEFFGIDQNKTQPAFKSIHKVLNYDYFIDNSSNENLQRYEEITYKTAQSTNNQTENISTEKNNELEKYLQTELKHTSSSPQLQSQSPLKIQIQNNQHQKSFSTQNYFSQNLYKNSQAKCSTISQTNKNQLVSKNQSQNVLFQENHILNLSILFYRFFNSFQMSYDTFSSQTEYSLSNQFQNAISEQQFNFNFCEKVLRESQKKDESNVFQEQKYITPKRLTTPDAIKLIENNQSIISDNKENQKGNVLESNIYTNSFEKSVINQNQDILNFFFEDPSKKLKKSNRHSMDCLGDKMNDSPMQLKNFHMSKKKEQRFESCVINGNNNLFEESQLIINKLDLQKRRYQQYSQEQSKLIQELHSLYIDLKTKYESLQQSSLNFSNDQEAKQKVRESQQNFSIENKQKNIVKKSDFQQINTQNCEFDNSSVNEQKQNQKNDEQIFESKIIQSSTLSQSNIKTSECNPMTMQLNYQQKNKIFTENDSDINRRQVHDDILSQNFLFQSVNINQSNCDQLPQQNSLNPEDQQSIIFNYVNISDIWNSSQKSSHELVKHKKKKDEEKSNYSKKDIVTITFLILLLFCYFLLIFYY
UniProt Q24CC5: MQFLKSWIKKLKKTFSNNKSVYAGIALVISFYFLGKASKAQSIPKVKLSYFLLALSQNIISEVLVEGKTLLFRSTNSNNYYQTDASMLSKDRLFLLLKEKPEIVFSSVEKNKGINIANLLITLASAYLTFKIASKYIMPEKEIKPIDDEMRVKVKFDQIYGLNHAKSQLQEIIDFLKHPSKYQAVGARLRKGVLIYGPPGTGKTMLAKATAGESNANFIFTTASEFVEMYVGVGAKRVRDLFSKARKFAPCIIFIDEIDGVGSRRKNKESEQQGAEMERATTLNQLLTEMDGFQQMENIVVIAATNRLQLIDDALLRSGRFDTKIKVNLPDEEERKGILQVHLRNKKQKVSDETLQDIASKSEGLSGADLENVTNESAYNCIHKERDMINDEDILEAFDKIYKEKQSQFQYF
UniProt I7M913: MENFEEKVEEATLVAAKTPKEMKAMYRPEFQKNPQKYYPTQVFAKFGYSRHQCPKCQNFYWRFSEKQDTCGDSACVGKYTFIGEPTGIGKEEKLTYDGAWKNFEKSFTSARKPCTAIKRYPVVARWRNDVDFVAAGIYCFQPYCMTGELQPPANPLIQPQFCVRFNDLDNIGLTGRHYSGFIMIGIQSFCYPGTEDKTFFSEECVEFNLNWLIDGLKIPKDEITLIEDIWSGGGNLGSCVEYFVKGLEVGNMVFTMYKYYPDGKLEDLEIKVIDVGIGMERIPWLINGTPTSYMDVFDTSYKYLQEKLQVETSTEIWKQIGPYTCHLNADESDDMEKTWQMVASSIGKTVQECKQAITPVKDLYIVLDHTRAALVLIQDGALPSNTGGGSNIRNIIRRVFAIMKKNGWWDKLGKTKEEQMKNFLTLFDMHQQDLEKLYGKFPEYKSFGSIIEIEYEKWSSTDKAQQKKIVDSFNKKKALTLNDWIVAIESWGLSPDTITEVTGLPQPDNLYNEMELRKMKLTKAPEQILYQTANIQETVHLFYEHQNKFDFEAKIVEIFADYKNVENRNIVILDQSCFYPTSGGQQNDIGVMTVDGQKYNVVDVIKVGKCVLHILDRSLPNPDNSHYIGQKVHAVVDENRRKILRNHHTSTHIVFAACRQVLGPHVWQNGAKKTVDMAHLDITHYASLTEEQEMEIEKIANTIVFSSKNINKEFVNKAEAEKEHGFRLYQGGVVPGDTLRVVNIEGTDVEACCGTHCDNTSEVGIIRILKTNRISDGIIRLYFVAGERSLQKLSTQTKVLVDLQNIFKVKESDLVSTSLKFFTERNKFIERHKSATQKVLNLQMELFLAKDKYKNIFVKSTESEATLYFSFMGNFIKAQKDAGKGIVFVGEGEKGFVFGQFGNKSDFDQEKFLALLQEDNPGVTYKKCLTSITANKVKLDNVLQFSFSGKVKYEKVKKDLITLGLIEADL
UniProt Q22GC6: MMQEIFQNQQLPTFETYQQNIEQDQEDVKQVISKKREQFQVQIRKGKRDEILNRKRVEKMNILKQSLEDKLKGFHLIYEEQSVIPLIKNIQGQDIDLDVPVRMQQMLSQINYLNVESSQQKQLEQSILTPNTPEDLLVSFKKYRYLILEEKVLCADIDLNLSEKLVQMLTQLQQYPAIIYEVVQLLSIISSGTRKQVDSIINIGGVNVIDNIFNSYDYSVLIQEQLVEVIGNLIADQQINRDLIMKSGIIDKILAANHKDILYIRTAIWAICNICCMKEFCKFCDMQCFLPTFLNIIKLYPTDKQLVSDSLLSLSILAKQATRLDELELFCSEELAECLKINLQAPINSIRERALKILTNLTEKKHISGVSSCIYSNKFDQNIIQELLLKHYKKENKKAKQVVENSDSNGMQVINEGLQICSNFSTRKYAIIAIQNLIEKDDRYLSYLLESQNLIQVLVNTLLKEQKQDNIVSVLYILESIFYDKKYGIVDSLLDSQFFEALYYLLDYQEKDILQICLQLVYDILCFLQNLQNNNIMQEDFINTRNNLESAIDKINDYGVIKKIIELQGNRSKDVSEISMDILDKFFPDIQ
UniProt I7MDW5: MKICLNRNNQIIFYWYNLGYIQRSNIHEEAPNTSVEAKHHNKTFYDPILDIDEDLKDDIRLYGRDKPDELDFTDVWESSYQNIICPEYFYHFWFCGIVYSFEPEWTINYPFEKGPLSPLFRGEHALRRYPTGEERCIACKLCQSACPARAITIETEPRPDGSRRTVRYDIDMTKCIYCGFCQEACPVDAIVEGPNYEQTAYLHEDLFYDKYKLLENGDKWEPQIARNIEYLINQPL
UniProt Q22WD2: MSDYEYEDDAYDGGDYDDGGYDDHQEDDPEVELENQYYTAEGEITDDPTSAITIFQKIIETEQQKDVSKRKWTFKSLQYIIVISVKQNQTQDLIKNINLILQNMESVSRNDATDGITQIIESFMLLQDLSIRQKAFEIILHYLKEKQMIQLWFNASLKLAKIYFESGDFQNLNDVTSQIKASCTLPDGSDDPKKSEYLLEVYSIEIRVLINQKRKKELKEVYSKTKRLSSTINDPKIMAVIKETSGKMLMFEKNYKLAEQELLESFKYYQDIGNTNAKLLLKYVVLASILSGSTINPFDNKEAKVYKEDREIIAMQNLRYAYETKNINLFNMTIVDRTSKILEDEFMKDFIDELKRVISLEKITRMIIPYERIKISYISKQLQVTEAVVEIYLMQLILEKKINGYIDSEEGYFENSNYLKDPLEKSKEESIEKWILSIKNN
UniProt I7LTL6: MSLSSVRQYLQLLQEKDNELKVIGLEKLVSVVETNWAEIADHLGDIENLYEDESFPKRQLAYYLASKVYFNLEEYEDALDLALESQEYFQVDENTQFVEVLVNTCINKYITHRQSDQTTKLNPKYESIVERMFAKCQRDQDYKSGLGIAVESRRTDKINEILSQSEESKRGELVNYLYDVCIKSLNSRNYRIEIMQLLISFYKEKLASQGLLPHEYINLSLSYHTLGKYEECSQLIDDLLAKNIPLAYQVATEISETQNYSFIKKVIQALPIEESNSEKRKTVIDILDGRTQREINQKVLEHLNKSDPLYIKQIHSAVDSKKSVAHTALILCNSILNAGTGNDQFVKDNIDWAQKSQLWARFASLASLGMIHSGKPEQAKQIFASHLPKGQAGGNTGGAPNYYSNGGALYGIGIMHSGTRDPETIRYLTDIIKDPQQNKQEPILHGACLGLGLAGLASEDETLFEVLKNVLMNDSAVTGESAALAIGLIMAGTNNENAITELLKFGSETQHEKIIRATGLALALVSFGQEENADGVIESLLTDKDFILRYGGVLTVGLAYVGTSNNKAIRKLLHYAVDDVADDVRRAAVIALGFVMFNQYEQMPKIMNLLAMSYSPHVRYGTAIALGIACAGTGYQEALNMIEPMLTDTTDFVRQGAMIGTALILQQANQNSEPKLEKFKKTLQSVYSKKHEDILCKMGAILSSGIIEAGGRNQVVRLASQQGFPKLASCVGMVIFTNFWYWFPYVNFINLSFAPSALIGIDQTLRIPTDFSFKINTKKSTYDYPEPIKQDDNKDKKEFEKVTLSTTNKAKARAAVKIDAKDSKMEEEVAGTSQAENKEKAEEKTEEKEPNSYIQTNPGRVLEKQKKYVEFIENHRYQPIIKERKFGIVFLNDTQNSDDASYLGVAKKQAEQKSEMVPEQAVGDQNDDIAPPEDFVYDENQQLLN
UniProt I7MHK8: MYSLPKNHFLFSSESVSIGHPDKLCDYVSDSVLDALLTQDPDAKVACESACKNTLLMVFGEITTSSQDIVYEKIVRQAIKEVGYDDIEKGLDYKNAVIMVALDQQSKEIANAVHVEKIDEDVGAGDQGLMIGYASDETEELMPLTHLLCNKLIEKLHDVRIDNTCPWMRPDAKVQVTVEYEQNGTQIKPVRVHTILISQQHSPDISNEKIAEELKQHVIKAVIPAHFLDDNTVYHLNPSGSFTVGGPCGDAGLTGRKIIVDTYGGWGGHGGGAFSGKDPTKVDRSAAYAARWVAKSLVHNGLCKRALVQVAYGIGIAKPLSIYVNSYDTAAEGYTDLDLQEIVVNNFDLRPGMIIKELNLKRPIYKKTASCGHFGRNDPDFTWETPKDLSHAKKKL
UniProt I7M8A6: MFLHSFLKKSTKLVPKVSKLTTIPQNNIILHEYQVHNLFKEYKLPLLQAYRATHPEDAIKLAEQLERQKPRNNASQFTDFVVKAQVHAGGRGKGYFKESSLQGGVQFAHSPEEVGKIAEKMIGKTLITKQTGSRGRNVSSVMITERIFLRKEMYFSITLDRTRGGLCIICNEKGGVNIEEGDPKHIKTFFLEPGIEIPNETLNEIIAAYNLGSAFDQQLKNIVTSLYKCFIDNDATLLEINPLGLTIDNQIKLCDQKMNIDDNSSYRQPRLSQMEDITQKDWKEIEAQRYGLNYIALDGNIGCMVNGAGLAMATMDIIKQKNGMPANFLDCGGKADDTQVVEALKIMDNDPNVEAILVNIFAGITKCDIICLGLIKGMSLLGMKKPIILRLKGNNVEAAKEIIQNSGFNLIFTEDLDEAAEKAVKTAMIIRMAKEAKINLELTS
UniProt Q240S0: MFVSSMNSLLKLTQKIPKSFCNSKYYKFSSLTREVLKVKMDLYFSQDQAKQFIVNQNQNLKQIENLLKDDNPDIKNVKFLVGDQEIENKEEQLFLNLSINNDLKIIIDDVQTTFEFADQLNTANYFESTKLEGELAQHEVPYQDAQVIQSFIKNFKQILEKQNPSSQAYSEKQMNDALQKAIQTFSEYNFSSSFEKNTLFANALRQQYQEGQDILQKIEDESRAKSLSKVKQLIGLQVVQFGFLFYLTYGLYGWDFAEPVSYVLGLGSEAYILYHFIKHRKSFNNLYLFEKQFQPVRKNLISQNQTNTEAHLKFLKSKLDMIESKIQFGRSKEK
UniProt Q248H6: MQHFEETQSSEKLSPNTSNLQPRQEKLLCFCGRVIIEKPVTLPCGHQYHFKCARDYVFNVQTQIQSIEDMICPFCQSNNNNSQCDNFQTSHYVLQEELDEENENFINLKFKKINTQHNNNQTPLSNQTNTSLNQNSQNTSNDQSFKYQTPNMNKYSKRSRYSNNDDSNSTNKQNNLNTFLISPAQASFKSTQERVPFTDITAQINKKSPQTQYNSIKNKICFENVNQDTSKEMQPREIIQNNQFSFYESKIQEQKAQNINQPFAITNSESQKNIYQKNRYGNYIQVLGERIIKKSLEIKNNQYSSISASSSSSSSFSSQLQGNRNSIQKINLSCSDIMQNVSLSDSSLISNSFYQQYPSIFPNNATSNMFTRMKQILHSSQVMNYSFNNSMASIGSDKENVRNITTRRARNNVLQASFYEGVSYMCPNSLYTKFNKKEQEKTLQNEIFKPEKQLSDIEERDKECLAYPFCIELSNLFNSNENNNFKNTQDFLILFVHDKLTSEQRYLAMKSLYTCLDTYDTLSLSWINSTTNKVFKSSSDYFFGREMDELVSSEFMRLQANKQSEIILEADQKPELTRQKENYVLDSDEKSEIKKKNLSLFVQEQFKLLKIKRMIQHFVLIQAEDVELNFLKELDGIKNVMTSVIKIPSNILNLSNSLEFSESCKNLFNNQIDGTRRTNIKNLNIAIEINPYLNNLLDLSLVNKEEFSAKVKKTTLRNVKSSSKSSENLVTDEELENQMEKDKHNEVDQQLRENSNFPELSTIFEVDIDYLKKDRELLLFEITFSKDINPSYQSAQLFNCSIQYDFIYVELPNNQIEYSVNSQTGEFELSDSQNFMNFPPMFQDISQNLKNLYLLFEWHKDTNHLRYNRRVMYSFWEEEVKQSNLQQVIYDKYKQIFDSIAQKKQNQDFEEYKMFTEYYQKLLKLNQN

| Substance | binding |
| --- | --- |
| ATP-dependent metalloprotease FtsH TTHERM_01079260 (from UniProt Q24CC5) | binds |
| Ars2 (ARS2 alanine-tRNA ligase/alanyl-tRNA synthetase protein) (from UniProt I7M913) | binds |
| Ima5 (IMA5 import in subunit alpha putative) (from UniProt Q22GC6) | binds |
| NADH-ubiquinone oxidoreductase 1 chain putative TTHERM_00294640 (from UniProt I7MDW5) | binds |
| PCI-domain protein TTHERM_00158020 (from UniProt Q22WD2) | binds |
| Rpn2 (RPN1 26S proteasome regulatory complex subunit RPN2) (from UniProt I7LTL6) | binds |
| S-adenosylmethionine synthase protein TTHERM_00444470 (from UniProt I7MHK8) | binds |
| Succinyl-CoA ligase [GDP-forming] subunit beta TTHERM_00437600 (from UniProt I7M8A6) | binds |
| Transmembrane protein putative TTHERM_00624630 (from UniProt Q240S0) | binds |
| Zfr3 (Zinc Finger-Related 3) (from UniProt Q248H6) | binds |

— article PMC6941865
